Paper PMC12040169 (PLOS Biology, 2025)
Some of the results follow.

Each compound was assayed on T1, CTL2-GFP (C. trachomatis L2/434/Bu, GFP-expressing). Conditions: bulk GFP, single well; 28.5 h, 10 µM; inhibitor.
T1 construct: L2/434/Bu, GFP-expressing
Set-up: species or system HeLa; Intracellular C. trachomatis growth in HeLa cells, bulk GFP fluorescence relative to DMSO

| SMILES | % of control remaining [%] |
| --- | --- |
| CC(C)[C@@]1(C)SC(N[C@H]2C[C@H]3C[C@@H]2C[C@@H]3O)=NC1=O [CBK138400] | 116.114 |
| O=C1CCCN1CCCNc1nccnc1-c1cccnc1 [CBK089246] | 154.312 |
| CC1(c2ccccc2)CC(=O)N(CCC(=O)O)C1=O (stereo not shown) [CBK287091] | 112.883 |
| Cc1cccc(C)c1N1CCN(CC(O)COc2ccc3c(C)cc(=O)oc3c2)CC1 (stereo not shown) [CBK270084] | 152.865 |
| CC(Cn1cccn1)NCc1cn(C)c2cc(F)ccc12 (stereo not shown) [CBK282220] | 131.624 |
| CC(O)CNc1nccnc1-c1ccccc1 (stereo not shown) [CBK089257] | 109.501 |
| C/C(=N\NC(=O)c1ccccc1O)c1ccc(NC(=O)c2ccc(C)cc2)cc1 [CBK261251] | 114.258 |
| C=CCNC(CC(=O)Nc1ccc(C)c(Cl)c1)C(=O)O (stereo not shown) [CBK266892] | 131.331 |
| CC(=O)N1CCCc2cc(C(O)CN3CCCC(C)(C)C3)ccc21 (stereo not shown) [CBK282143] | 156.383 |
| Cn1ccnc1C1(O)CC2CCC(C1)N2C(=O)c1cccc(Cl)c1 (stereo not shown) [CBK284091] | 125.82 |
| O=C(Cn1nnc(-c2ccc(CN3CCOCC3)cc2)n1)Nc1ccc(Br)cc1 [CBK127364] | 100 |
| N#Cc1c(NC(=O)CSc2nnc3c(n2)[nH]c2ccccc23)sc2c1CCCC2 [CBK262417] | 100.512 |
| Cc1ccc(CS(=O)(=O)N2CCN(CCO)C(C)C2)c(F)c1 (stereo not shown) [CBK304702] | 114.706 |
| Cc1nn(CC(=O)N2CCC(C)CC2)c(=O)c2cc3sccc3n12 [CBK284083] | 116.284 |
| CCCCN(C(=O)CC1SC(NC2CCCCCC2)=NC1=O)c1ccccc1 (stereo not shown) [CBK067392] | 134.717 |
| Cc1c(C(C)NCC2CCCC2O)cnn1-c1ccc(C#N)cc1 (stereo not shown) [CBK304019] | 102.871 |
| O=C(NCc1ccc2c(c1)OCO2)c1cncc(-c2ccc(C(=O)N3CCOCC3)cc2)c1 [CBK158614] | 84.3677 |
| Cc1noc(C)c1S(=O)(=O)Nc1ccc(C(=O)Nc2ccc(F)cc2)cc1 [CBK034410] | 108.366 |
| O=C(c1ccc2ccccc2n1)N1CCC(F)CC1 [CBK200276] | 116.123 |
| CCc1nc2c(OCc3ccc(S(C)(=O)=O)cc3)cccn2c1N(CCOC)C(C)=O [CBK147846] | 114.531 |
| Cc1[nH]nc(C(F)(F)F)c1Cl [CBK025387] | 101.951 |
| Cc1cc2c(o1)c1cnn(CC(=O)N3CCCC(C)C3)c(=O)c1n2C (stereo not shown) [CBK284218] | 139.215 |

Arranged by number of heavy atoms (falling): part of the list above

| SMILES | % of control remaining [%] |
| --- | --- |
| Cc1cc2c(o1)c1cnn(CC(=O)N3CCCC(C)C3)c(=O)c1n2C (stereo not shown) [CBK284218] | 139.215 |
| CC(C)[C@@]1(C)SC(N[C@H]2C[C@H]3C[C@@H]2C[C@@H]3O)=NC1=O [CBK138400] | 116.114 |
| CC(O)CNc1nccnc1-c1ccccc1 (stereo not shown) [CBK089257] | 109.501 |
